Some of the results follow. Repeats are few or missing, and single values can be far off.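 Pooled together, 41 HAP1 clones carry intronic fluorescent tags on 61 cancer-associated proteins, and each clone is recognized by its imaging pattern. Measurements are benchmarked against DMSO-treated control wells. dBET6, a BRD4 degrader, served as the positive control.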

This experiment addresses BRD4 (intron 10 mScarlet tag, HAP1) (UniProt O60885). The experiment can be described thus: BRD4 median nuclear fluorescence intensity change vs DMSO (log2 fold change); higher = more BRD4 protein. The settings on record: 6 h.
As for `CC[C@@H](C(N)=O)N1CCCC1=O` [levetiracetam] (10 µM), the “BRD4 median nuclear fluorescence intensity change (log2)” value was -0.0276.
Turning to `CCOc1ccccc1-n1c(C(C)N2CCN(C(=O)COc3ccc(Cl)cc3)CC2)nc2ccccc2c1=O` (stereo unspecified) [erastin] (10 µM), the “BRD4 median nuclear fluorescence intensity change (log2)” value was -0.202.
The value for `CCCC(C)(COC(N)=O)COC(=O)NC(C)C` (stereo unspecified) [carisoprodol] (10 µM) was 0.0305.
The figure for `COc1ccc2c(c1)[C@]13CCCC[C@@H]1[C@H](C2)N(C)CC3` [dextromethorphan] (10 µM) is 0.0873; for `O=P1(NCCCl)OCCCN1CCCl` (stereo unspecified) [ifosfamide] (20 µM) it is 0.0162; for `C[C@]12Cc3c[nH]nc3C[C@@H]1CC[C@@H]1[C@@H]2CC[C@@]2(C)[C@H]1CC[C@]2(C)O` [stanozolol] (10 µM) it is -0.0554.
The value for `O=[N+]([O-])O[C@H]1CO[C@H]2[C@@H]1OC[C@H]2O[N+](=O)[O-]` [isosorbide dinitrate] (9.99947 µM) was 0.161.
For the compound `O=c1c2ccccc2nc(CCl)n1-c1ccc(F)cc1` (10 µM), the “BRD4 median nuclear fluorescence intensity change (log2)” value came to 0.122.
`NC(=O)C[S@@+]([O-])C(c1ccccc1)c1ccccc1` [armodafinil (modafinil)] (10 µM): the “BRD4 median nuclear fluorescence intensity change (log2)” value was 0.0877.
The value for `O=C(O)CCCc1ccc(N(CCCl)CCCl)cc1` [chlorambucil] (10.66 µM) was 0.0304; that for `CC[C@@H](CO)NC(=O)[C@@H]1C=C2c3cccc4[nH]cc(c34)C[C@H]2N(C)C1` [methylergonovine] (13.4 µM) was 0.0653; that for `COC[C@@H](NC(C)=O)C(=O)NCc1ccccc1` [lacosamide] (10 µM) was 0.0398.
Take `C[C@]12C=CC(=O)C=C1CC[C@@H]1[C@@H]2CC[C@]2(C)OC(=O)CC[C@@H]12` [testolactone] (10 µM): the “BRD4 median nuclear fluorescence intensity change (log2)” value was 0.00124.
As for `[O-][Cl+3]([O-])([O-])[O-].[O-][Cl+3]([O-])([O-])[O-].c1c[n+]2cn1CCCC[n+]1ccn(c1)CCCC2` (10 µM), the “BRD4 median nuclear fluorescence intensity change (log2)” value is 0.165.
Consider `CCOc1ccc(-n2c(CCl)nc3ccccc3c2=O)cc1` (10 µM), for which the “BRD4 median nuclear fluorescence intensity change (log2)” value is -0.155.
Regarding `Cc1c(N)nc([C@H](CC(N)=O)NC[C@H](N)C(N)=O)nc1C(=O)N[C@H](C(=O)N[C@H](C)[C@@H](O)[C@H](C)C(=O)N[C@H](C(=O)NCCc1nc(-c2nc(C(=O)NCCC[S+](C)C)cs2)cs1)[C@@H](C)O)[C@@H](OC1OC(CO)C(O)C(O)C1OC1OC(CO)C(O)C(OC(N)=O)C1O)c1cnc[nH]1` (stereo partly specified) [bleomycin] (9.95632 µM), the “BRD4 median nuclear fluorescence intensity change (log2)” value was -0.00141.

Source of the values: the supplement of paper PMC11098740.
